The exact form of at least one protein or probe is not confirmed. At least one verdict was read from the data and is not stated in words by the source.

From publication PMC3969353 come the findings set out here.

The subject of the data set is E. coli HU (Escherichia coli). In words: EMSA. Conditions: bend permutation, recombinant protein, label: 5'-32P. On the technique in general: A gel shift assay detects complexes by their altered migration in electrophoresis.

With “CAGGGCAATCGCATTTGAACCGTTACACACTTATAGATCTAACGATTGCTACGCTCGGTTATCAAACAAGTACGAAT / ATTCCAACTTGTTTGTAAACCGAGCGTAGCAATCGTTAGATCTATAAGTGTGTAACGGTTCAAATGCGATTGCCCTG [Loop 4]”, the binding result is recorded as “binds”.

“CAGGGCAATCGCATTTGAACCGTTACACACTTATAGATCTAACGATTGCTACGCTCGGTTATCAAACAAGTACGAAT / ATTCGTACTTGTTTGATAACCGAGCGTAGCAAAGGTTAGATCTTAAAGTGTGTAACGGTTCAAATGCGATTGCCCTG [Loop (original, central)]”: the binding result (slowest migrating complex) was “binds”.

As for “CAGGGCAATCGCATTTGAACCGTTACACACTTATAGATCTAACGATTGCTACGCTCGGTTATCAAACAAGTACGAAT / ATTCGTACTTGTTTGATAACCGAGCGTAGCAATCGTTAGATCTATAAGTCAGTAACGGTTGTAATGCGATTGCCCTG [Loop 2]”, the binding result is recorded as “binds”.

In the case of “CAGGGCAATCGCATTTGAACCGTTACACACTTATAGATCTAACGATTGCTACGCTCGGTTATCAAACAAGTACGAAT / ATTCGTACTTGTTTGATAACCGAGCGTAGCAATCGTTAGATCTATAAGTGTGTAACGGTTGTAATGCGATTCGCCTG [Loop 1]”, the binding result is given as “binds”.

Consider “CAGGGCAATCGCATTTGAACCGTTACACACTTATAGATCTAACGATTGCTACGCTCGGTTATCAAACAAGTACGAAT / ATTCGTACTTGTTTGTAAACCGAGCGATGCAATCGTTAGATCTATAAGTGTGTAACGGTTCAAATGCGATTGCCCTG [Loop 3]”, for which the binding result was “binds”.
